Data on one substance can be found in publication PMC13168492.

Sequences of proteins named here, by UniProt entry; tags and fusion partners are left off.
UniProt P45974: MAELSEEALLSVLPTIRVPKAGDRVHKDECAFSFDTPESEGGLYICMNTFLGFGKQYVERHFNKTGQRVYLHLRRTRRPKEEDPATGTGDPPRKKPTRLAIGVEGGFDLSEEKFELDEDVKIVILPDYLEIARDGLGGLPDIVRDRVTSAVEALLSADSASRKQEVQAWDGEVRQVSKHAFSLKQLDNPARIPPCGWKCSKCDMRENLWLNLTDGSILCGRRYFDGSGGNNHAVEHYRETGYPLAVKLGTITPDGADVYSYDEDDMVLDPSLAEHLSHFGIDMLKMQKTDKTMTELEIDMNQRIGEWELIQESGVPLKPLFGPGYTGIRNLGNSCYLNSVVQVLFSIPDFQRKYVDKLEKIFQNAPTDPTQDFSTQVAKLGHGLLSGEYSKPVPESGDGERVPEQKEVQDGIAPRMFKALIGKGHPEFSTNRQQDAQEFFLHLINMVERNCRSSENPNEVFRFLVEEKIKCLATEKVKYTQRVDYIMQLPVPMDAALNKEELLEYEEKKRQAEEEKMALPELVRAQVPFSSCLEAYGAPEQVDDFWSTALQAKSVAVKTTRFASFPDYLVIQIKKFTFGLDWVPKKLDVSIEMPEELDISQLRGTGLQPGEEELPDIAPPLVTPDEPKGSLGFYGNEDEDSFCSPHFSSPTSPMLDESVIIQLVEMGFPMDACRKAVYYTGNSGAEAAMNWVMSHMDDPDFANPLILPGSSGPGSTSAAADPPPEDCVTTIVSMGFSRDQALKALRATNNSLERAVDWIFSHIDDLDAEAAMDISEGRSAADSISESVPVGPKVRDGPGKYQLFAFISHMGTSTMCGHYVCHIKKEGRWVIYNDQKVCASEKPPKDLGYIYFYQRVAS

No constants are given. Whether binding was seen depends on the method and setting. In cells and extracts the contact can be indirect. Here binding means that the protein was enriched with, or labelled near, the bait; the list need not be complete.

The target in the assay is ubiquitin-specific protease 5 (USP5), endogenous (human (endogenous in KYSE450 and KYSE30)) (UniProt P45974). The experiment in a line: affinity purification with mass spectrometry; USP5 immunoprecipitated from KYSE450 and KYSE30 cells, LC-MS/MS of the precipitate.

Take “inosine monophosphate dehydrogenase 2 (IMPDH2), endogenous (from UniProt P12268 1-514) (enzyme)”: the binding entry is on record as “binds”.
